Laboratory results reported in PubChem BioAssay AID1347076 (National Center for Advancing Translational Sciences (NCATS), 2019).
The campaign covered roughly 400,000 compounds. About 13,000 (3.2%) were called active. The inconclusive results got no clear call from the source; some entries with a clear call stand among them for comparison. The call rests on the fitted dose curve; in most records, active means well fitted cell-killing curve with a large enough effect; inconclusive means small, poorly fitted or top-dose-only effect, or effect the other way; inactive means flat fitted curve, though single readings scatter. Potencies beside an inconclusive call are fits to weak or partial responses and may not hold up.

Experiment: qHTS assay for MDR1-selective chemotherapeutics: Primary screen using the drug-selected MDR subline cells KB-V1; further: nearly all actives have a fitted effect of over 60% in size
Conditions: KB-V1 MDR cells viability, CellTiter-Glo, 72 h; activity change, negative = cytotoxicity: at 46.1 µM (top of the series)
Outline: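 Cells of the MDR subline KB-V1 are plated, dosed with compound at multiple concentrations, and incubated 72 h at 37 degrees C; CellTiter-Glo is then added and luminescence read after 10 min.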
On the % scale 0 is the no-effect control and ±100 the full control effect; potency means the concentration at half of the fitted maximal effect.

Row | Structure (SMILES) | Potency | activity change, negative = cytotoxicity
1 | CCc1nn(CC(=O)Nc2ccc(C)cc2C)c(=O)c2cc3sccc3n12 | inactive | –
2 | CC(=O)C1=C(O)C(CSCc2ccccc2)N(C)C1=O (centres undefined) | active: 20.6 µM | –
3 | C#CCSc1nc(-c2ccccc2)cc(C(F)(F)F)c1C#N | inconclusive: 20.6 µM [cytotoxic, partial curve] | –
4 | CC(Oc1ccc(F)cc1)C(=O)Nc1cccc(S(=O)(=O)N(C)c2ccccc2)c1 (centres undefined) | inconclusive: 23.1 µM [cytotoxic, single point] | –
5 | CCCCn1c(O)c(N=NC(=O)c2ccco2)c2ccccc21 | active: 16.4 µM | –
6 | CCC(NC(=O)C1(C)CC1(Br)Br)c1ccc(C)cc1 (centres undefined) | inconclusive: 18.4 µM [cytotoxic, single point] | –
7 | O=C(Nc1nccs1)C1CCN(S(=O)(=O)c2c(Cl)cccc2Cl)CC1 | inconclusive: 20.6 µM [cytotoxic, single point] | –
8 | CCOC(=O)C1(Cc2ccccc2C)CCCN(C(=O)c2ccoc2)C1 (centres undefined) | inconclusive: 16.4 µM [cytotoxic, partial curve, poor fit] | –
9 | CN(Cc1cccnc1)C(=O)c1cc(COc2ccc3c(c2)CCCC3)on1 | inconclusive: 16.4 µM [cytotoxic, single point] | –
10 | CC1CCN(C(=O)/C(=C\c2cccs2)NC(=O)c2ccccc2)CC1 | inconclusive: 20.6 µM [cytotoxic, single point] | –
11 | CCCOc1cccc(C(=O)Nc2ccc(-c3cc4ccccc4oc3=O)c(C)c2)c1 | inconclusive: 2.31 µM [cytotoxic, full curve] | –
12 | COc1ccc(CN2CCNC(=O)C2CC(=O)NCc2cn[nH]c2-c2ccccc2)c(F)c1 (centres undefined) | inconclusive: 20.6 µM [rising, single point] | –
13 | COC(=O)c1ccc(-c2nc3ccc(C)cc3o2)cc1 | inconclusive: 8.2 µM [cytotoxic, partial curve] | –
14 | CN1CCCC(C)(C(=O)Nc2cccc(Oc3ccccc3)c2)C1 (centres undefined) | inactive | –
15 | O=C(CNC1CCCCC1)Nc1cc(S(=O)(=O)N2CCOCC2)ccc1Cl | inconclusive: 8.2 µM [cytotoxic, partial curve] | –
16 | O=C(C[n+]1cccc(Br)c1)c1ccc(I)cc1 | inactive | –
17 | COc1ccccc1NC(=O)c1c(NC(=O)c2ccco2)sc2c1CCC2 | inconclusive: 8.2 µM [cytotoxic, partial curve] | –
18 | Cc1c(NC(=O)c2ccc(Br)o2)cccc1-c1nc2ccccc2o1 | inactive | –
19 | O=C(CC(C(=O)O)C1CCCO1)NCCc1ccc2c(c1)OCO2 (centres undefined) | inconclusive: 16.4 µM [rising, single point] | –
20 | CCc1cccc(CC)c1NC(=O)Cn1c(-c2ccccc2Cl)nc2ccccc21 | inconclusive: 2.91 µM [cytotoxic, full curve, poor fit] | –
21 | COc1ccc(C(=O)C(CN2CCOCC2)c2ccccc2)cc1 (centres undefined) | inconclusive: 20.6 µM [cytotoxic, single point] | –
22 | O=C(/C(=N/N=C/c1ccc(O)c(O)c1O)c1ccccc1)c1ccccc1 | inconclusive: 20.6 µM [cytotoxic, single point] | –
23 | Cc1ccc(S(=O)(=O)c2cc3c(=O)n4ccccc4nc3n(C3CCCCC3)c2=N)cc1 | inactive | –
24 | CCOC(=O)c1c(C)[nH]c(C)c1S(=O)(=O)N1CCC(C(=O)Nc2ccc(C)c(Cl)c2)CC1 | inactive | –
25 | COc1ccc(C)cc1-n1nnnc1SCC(=O)c1ccc2c(c1)OCCO2 | inconclusive: 29.1 µM [cytotoxic, single point] | –

Row | Structure (SMILES) | Potency | activity change, negative = cytotoxicity
26 | Cc1cc(C)c2nc(-n3nc(C)cc3N)cc(C)c2c1 | inactive | –
27 | COc1ccc(C(CNC(=O)CNS(=O)(=O)c2ccc(NC(C)=O)cc2)N2CCOCC2)cc1 (centres undefined) | inactive | –
28 | CC(=O)Nc1ccc(S(=O)(=O)NNC(=O)NC23CC4CC(CC(C4)C2)C3)cc1 | inactive | –
29 | COc1ccccc1CNC(=O)CCNS(=O)(=O)c1cccc2nsnc12 | inconclusive: 29.1 µM [cytotoxic, single point] | –
30 | OCCNc1nc(-c2ccccc2)c2cc(Cl)ccc2n1 | inconclusive: 29.1 µM [cytotoxic, single point] | –
31 | O=C1NC2(CCCC2)N=C1c1ccc(Cl)cc1 | inconclusive: 18.4 µM [cytotoxic, single point] | –
32 | O=Cc1c(Nc2ccccc2Cl)nc2ccccn2c1=O | inconclusive: 4.61 µM [rising, full curve, poor fit] | –
33 | c1ccc(COc2ccc(OCCCCN3CCCC3)cc2)cc1 | inconclusive: 29.1 µM [cytotoxic, single point] | –
34 | COc1ccccc1/C=C\C=N\n1c(-c2ccc(Cl)cc2)n[nH]c1=S | inconclusive: 25.9 µM [cytotoxic, single point] | –
35 | C#Cc1ccc(NC(=O)C2(C)CCN2C(=O)c2cc(C)n(C)n2)cc1 (centres undefined) | inactive | –
36 | CC(=O)Nc1ccc(S(=O)(=O)N2CCN(CC(=O)NC3CCCC3)CC2)cc1 | inconclusive: 11.6 µM [rising, partial curve] | –
37 | CC(O)(Cc1ccccn1)Cc1ccccn1 | inconclusive: 0.411 µM [rising, full curve, poor fit] | –
38 | O=[N+]([O-])c1cccc(-c2nc3ccc([N+](=O)[O-])cc3[nH]2)c1 | inconclusive: 29.1 µM [cytotoxic, single point] | –
39 | CCOC(=O)c1cc(-c2ccccc2)n(-c2cccc(C(=O)N(C)c3ccc(C)cc3)c2)c1C | inconclusive: 23.1 µM [cytotoxic, single point] | –
40 | C=CCOC(=O)N1CCC2CC1c1cc(-c3ccc(OC)cc3)ccc12 (centres undefined) | inconclusive: 20.6 µM [cytotoxic, single point] | –
41 | C[C@H](CO)N1C[C@H](C)[C@@H](CN(C)C(=O)Nc2ccc(C(F)(F)F)cc2)Oc2c(NC(=O)Nc3ccc4c(c3)OCO4)cccc2C1=O | inactive | –
42 | Cc1c(OCC(=O)OC(C)(C)C)ccc2c3c(c(=O)oc12)CCC3 | inconclusive: 11.6 µM [cytotoxic, partial curve] | –
43 | CC(=O)C1=C(C)Nc2ncnn2C1c1ccc(Cl)cc1Cl (centres undefined) | – | inconclusive: -36.6% [cytotoxic]
44 | CCC1CCCCN1C(=O)c1sc2nc(C)nc(N(CC)CC)c2c1C (centres undefined) | inactive | –
45 | Fc1ccc(N2CCN(Cc3cccn3-c3nnc(N4CCN(C5CCCCC5)CC4)s3)CC2)cc1 | inactive | –
46 | CCCCCCCCn1c(=O)c(C(=O)OC)c(N)c2ccccc21 | inconclusive: 29.1 µM [cytotoxic, single point] | –
47 | COC(=O)[C@@]1(Sc2ccc(C)cc2)CC(=O)N(c2ccc(Cl)cc2)[C@@H]1c1ccccc1 | inconclusive: 29.1 µM [cytotoxic, partial curve, poor fit] | –
48 | O=C(NCc1ccccc1)C(c1ccccc1F)n1c(=O)c(-c2cc3ccccc3[nH]2)nc2ccccc21 (centres undefined) | inactive | –
49 | NC(=S)NN=Cc1nccc2c(C(F)(F)F)cccc12 | inconclusive: 0.731 µM [cytotoxic, full curve] | –
50 | CCCC(NC(=O)C(C)N1CCN(S(=O)(=O)c2ccccc2)CC1)c1ccccc1 (centres undefined) | active: 7.31 µM | –

Row | Structure (SMILES) | Potency | activity change, negative = cytotoxicity
51 | COc1ccc(C(O)c2ncc(-c3ccc4ccccc4c3)[nH]2)cc1F (centres undefined) | inactive | –
52 | COc1ccc(C(=O)N2CCC(C)(C(=O)NS(=O)(=O)C3CC3)C2)cc1F (centres undefined) | inconclusive: 11.6 µM [rising, partial curve] | –
53 | c1ccc(N=Nc2ccc3cccccc2-3)cc1 | inconclusive: 29.1 µM [cytotoxic, single point] | –
54 | Cn1c(=N)n(CC(=O)c2cccs2)c2ccccc21 | inactive | –
55 | O=C(O)c1ccccc1/C=N/NC(=S)NCc1ccccc1 | inconclusive: 25.9 µM [rising, single point] | –
56 | CC(=O)c1c(C)[nH]c(C(=O)OCC(=O)Nc2c(C)n(C)n(-c3ccccc3)c2=O)c1C | inconclusive: 9.2 µM [rising, partial curve, poor fit] | –
57 | CC(=O)Nc1ccc(S(=O)(=O)N2CC(=O)NC(=O)C2)cc1 | inactive | –
58 | CC(C)(C)c1ccc(/C=C/C(=O)N2CCN(c3ncccn3)CC2)cc1 | inconclusive: 14.6 µM [cytotoxic, single point] | –
59 | COc1ccc(C2C(C#N)=C(N)OC3=C2C(=O)CC(C)C3)c(OC)c1OC (centres undefined) | inactive | –
60 | CC1CCN(c2oc(-c3ccc(COc4ccc(Cl)cc4)o3)nc2C#N)CC1 | inactive | –
61 | CCCCOc1ccccc1C(=O)Nc1onc2c1CCCC2 | inactive | –
62 | COCCCNC(=O)CC1C(=O)N(Cc2ccccc2)C(C)c2nc3ccccc3n21 (centres undefined) | inactive | –
63 | CC(C)(C)C(=O)N1CCN(c2nc3ccc(Cl)cc3s2)CC1 | inactive | –
64 | CCOC(=O)C1CCC(=O)N1Cc1c[nH]c2ccccc12 (centres undefined) | inactive | –
65 | N#CC1=C2SCC(O)(c3ccccc3)N2C(=O)CC1c1cccs1 (centres undefined) | active: 0.58 µM | –
66 | CC(=O)CC1(O)C(=O)N(CN2CCN(c3ccccc3)CC2)c2ccccc21 (centres undefined) | inactive | –
67 | Cc1ccc(-c2noc(C3CCN(C(=O)Nc4ccc(C#N)cc4)CC3)n2)o1 | active: 2.59 µM | –
68 | COc1cc(/C=N/Nc2ccccn2)ccc1OCC(C)C | inconclusive: 10.3 µM [cytotoxic, partial curve] | –
69 | O=C(Nc1ccccc1)Nc1nc(-c2ccc(F)cc2)cs1 | inactive | –
70 | CCOc1ccccc1CNC(=O)c1ccc(Cn2c(SCc3ccccc3)nc3cccnc32)cc1 | inactive | –
71 | CC(C)c1nccn1CCC(=O)O | inconclusive: 8.2 µM [rising, partial curve, poor fit] | –
72 | CN(C)S(=O)(=O)c1cccc(-c2cn3ccccc3n2)c1 | inactive | –
73 | COc1ccc2c(c1)c(/C=C/c1cc[n+](C)cc1)cn2C | inconclusive: 3.66 µM [cytotoxic, full curve] | –
74 | CCc1ccc2nc(SCC(=O)N3CC(=O)Nc4ccccc43)c(C#N)cc2c1 | active: 6.51 µM | –

Arranged by SMILES length (high to low): part of the list above.
Row | Structure (SMILES) | Potency | activity change, negative = cytotoxicity
41 | C[C@H](CO)N1C[C@H](C)[C@@H](CN(C)C(=O)Nc2ccc(C(F)(F)F)cc2)Oc2c(NC(=O)Nc3ccc4c(c3)OCO4)cccc2C1=O | inactive | –
56 | CC(=O)c1c(C)[nH]c(C(=O)OCC(=O)Nc2c(C)n(C)n(-c3ccccc3)c2=O)c1C | inconclusive: 9.2 µM [rising, partial curve, poor fit] | –
12 | COc1ccc(CN2CCNC(=O)C2CC(=O)NCc2cn[nH]c2-c2ccccc2)c(F)c1 (centres undefined) | inconclusive: 20.6 µM [rising, single point] | –
70 | CCOc1ccccc1CNC(=O)c1ccc(Cn2c(SCc3ccccc3)nc3cccnc32)cc1 | inactive | –
4 | CC(Oc1ccc(F)cc1)C(=O)Nc1cccc(S(=O)(=O)N(C)c2ccccc2)c1 (centres undefined) | inconclusive: 23.1 µM [cytotoxic, single point] | –
50 | CCCC(NC(=O)C(C)N1CCN(S(=O)(=O)c2ccccc2)CC1)c1ccccc1 (centres undefined) | active: 7.31 µM | –
36 | CC(=O)Nc1ccc(S(=O)(=O)N2CCN(CC(=O)NC3CCCC3)CC2)cc1 | inconclusive: 11.6 µM [rising, partial curve] | –
22 | O=C(/C(=N/N=C/c1ccc(O)c(O)c1O)c1ccccc1)c1ccccc1 | inconclusive: 20.6 µM [cytotoxic, single point] | –
35 | C#Cc1ccc(NC(=O)C2(C)CCN2C(=O)c2cc(C)n(C)n2)cc1 (centres undefined) | inactive | –
1 | CCc1nn(CC(=O)Nc2ccc(C)cc2C)c(=O)c2cc3sccc3n12 | inactive | –
29 | COc1ccccc1CNC(=O)CCNS(=O)(=O)c1cccc2nsnc12 | inconclusive: 29.1 µM [cytotoxic, single point] | –
44 | CCC1CCCCN1C(=O)c1sc2nc(C)nc(N(CC)CC)c2c1C (centres undefined) | inactive | –
5 | CCCCn1c(O)c(N=NC(=O)c2ccco2)c2ccccc21 | active: 16.4 µM | –
69 | O=C(Nc1ccccc1)Nc1nc(-c2ccc(F)cc2)cs1 | inactive | –
32 | O=Cc1c(Nc2ccccc2Cl)nc2ccccn2c1=O | inconclusive: 4.61 µM [rising, full curve, poor fit] | –
53 | c1ccc(N=Nc2ccc3cccccc2-3)cc1 | inconclusive: 29.1 µM [cytotoxic, single point] | –
